2 molecules from article PMC10312976 can be followed below.

No constants are given. Whether binding was seen depends on the method and setting. Binding seen in cells or lysates may run through a third protein. Some binding calls cover weakened binding; strength is not graded here.

Experiment [1] deals with T1, AQR (human (endogenous in HEK293T)), O60306.
T1 chain: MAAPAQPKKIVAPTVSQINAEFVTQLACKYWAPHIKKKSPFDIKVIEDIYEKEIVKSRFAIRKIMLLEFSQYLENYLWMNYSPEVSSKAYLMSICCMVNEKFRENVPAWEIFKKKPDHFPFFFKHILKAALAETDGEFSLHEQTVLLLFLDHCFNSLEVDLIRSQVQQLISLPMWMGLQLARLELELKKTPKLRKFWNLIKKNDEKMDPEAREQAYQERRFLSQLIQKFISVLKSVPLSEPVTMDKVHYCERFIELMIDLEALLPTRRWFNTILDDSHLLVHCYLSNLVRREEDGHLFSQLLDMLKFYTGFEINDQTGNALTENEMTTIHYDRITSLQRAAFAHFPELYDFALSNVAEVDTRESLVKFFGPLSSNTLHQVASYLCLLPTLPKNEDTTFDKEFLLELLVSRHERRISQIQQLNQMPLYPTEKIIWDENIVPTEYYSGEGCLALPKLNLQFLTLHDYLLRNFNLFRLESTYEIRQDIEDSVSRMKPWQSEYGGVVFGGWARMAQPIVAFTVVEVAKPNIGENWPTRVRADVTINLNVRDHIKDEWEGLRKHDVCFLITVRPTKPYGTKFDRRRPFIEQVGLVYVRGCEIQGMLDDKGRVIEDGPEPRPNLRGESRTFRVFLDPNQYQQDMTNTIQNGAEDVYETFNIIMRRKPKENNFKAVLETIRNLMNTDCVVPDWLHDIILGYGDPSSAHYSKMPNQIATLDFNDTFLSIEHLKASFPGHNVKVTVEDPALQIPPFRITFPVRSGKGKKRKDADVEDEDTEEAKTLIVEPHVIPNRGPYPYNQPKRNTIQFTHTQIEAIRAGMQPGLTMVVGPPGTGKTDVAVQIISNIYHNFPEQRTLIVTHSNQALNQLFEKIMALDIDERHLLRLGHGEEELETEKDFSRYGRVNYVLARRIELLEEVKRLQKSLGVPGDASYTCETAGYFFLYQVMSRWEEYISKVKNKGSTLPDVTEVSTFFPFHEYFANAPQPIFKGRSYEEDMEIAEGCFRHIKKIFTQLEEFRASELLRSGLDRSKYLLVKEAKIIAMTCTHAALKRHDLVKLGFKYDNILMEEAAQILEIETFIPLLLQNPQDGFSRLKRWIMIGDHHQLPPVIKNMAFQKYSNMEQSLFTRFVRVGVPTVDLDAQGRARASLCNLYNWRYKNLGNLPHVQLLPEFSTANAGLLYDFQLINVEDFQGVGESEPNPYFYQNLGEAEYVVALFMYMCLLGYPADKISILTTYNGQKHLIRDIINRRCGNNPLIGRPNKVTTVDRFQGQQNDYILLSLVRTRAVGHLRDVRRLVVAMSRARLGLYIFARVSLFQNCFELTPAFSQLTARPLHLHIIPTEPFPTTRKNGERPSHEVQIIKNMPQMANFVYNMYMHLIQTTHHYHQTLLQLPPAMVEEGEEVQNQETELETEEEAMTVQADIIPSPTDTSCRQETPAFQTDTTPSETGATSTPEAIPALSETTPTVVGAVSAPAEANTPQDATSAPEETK
Kind of experiment: co-IP; reciprocal co-IP of Dbr1 and AQR in 293T cells, western blot of both Dbr1 and AQR immunoprecipitations. To be noted: remark: other sources report otherwise. (In general: A western blot detects proteins with antibodies after separation by electrophoresis.)

For experiment [2], the target named is T2, Dbr1 (reciprocal co-IP in 293T cells) (human), Q9UK59.
T2 chain: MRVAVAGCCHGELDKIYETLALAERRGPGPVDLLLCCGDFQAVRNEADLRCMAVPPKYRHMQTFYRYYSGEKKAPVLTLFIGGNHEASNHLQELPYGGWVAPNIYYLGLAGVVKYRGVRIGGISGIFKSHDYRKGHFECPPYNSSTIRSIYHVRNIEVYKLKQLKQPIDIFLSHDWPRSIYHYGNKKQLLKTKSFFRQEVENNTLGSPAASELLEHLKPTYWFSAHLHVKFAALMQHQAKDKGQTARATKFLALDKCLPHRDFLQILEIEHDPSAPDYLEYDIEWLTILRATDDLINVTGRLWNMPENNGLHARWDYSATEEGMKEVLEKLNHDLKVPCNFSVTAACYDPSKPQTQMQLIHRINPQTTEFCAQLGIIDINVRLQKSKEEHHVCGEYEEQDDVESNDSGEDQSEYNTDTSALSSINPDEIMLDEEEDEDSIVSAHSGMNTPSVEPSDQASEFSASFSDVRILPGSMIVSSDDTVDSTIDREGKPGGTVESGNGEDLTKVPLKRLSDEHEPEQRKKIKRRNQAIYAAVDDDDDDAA
Described as above. The note with it: remark: other sources report otherwise.

B1: Dbr1 (reciprocal co-IP in 293T cells), Q9UK59 1-544 (enzyme)
chain: T2 chain
Regarding B1, the binding entry in experiment [1] was “binds”.

B2: AQR, O60306 1-1485 (protein)
chain: T1 chain
Consider B2, for which, in experiment [2], the binding entry was “binds”.
